This test has as its target Escherichia coli IscU (E. coli) (UniProt P0ACD4). In words: condition: only prepared anaerobically with 10 mM TCEP; 3.0 or 6.0 mg/mL; SAXS; prepared in an anaerobic chamber, dialysed against degassed buffer with 10 mM TCEP, sealed sample cell; 3.0 or 6.0 mg/mL; variable temperature; molecular mass by the I(0) and Vc methods; both purified.

Chains of the proteins cited; added tags and fusions are not shown.
UniProt P0ACD4: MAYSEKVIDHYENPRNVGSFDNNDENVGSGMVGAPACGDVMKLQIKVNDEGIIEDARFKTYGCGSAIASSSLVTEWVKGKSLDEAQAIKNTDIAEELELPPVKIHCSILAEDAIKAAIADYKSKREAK

Results are given in words; binding and its absence hold for the method and conditions named.

Turning to “Escherichia coli IscU (from UniProt P0ACD4 1-128)”, the binding entry is reported as “no binding”.

Values taken from publication PMC4564936.
